Among the data in article PMC9200688, “The production and biochemical characterization of α-carbonic anhydrase from Lactobacillus rhamnosus GG” (Applied Microbiology and Biotechnology, 2022) are Ki values, retold here.

The structures appear in SMILES notation. Several values for one entry are separate records, joined by “and”; a condition that tells them apart may be missing. Equal entries are not always repeated. A value given as a limit tells only on which side of the number the result lay.

As usually defined, the Ki is the dissociation constant of the complex between target and ligand, obtained from inhibition or displacement.

The assay has as its target T1, α-carbonic anhydrase of L. rhamnosus (LrhCA) (Lacticaseibacillus rhamnosus, UniProt A0A809N5C7).
T1 sequence (A0A809N5C7 1-215): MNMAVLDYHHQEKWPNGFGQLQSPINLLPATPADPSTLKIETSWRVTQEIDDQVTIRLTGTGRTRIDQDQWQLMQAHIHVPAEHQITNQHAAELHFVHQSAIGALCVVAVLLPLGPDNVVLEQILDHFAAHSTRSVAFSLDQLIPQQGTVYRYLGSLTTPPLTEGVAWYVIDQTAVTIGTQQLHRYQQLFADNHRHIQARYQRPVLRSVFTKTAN
Briefly: Sulfonamide inhibition of LrhCA, stopped-flow CO2 hydrase assay. In kind it is biochemical, Lactobacillus rhamnosus GG.

The compound `CC(=O)Nc1nnc(S(N)(=O)=O)s1` [AAZ, acetazolamide] gave a Ki of 733 nM.
The same measure for `CCN[C@H]1C[C@H](C)S(=O)(=O)c2sc(S(N)(=O)=O)cc21` [DZA, dorzolamide, reference compound]: < 720 nM and 474 nM.
